Reference: PubChem BioAssay AID1224828 (NIAID, 2016)
Purpose: 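Find genes required for NF-kappaB p65 moving into the nucleus after LPS in mouse macrophages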 (primary screen). System: mouse RAW264.7 G9 macrophage reporter cells (GFP-p65, Tnf promoter-mCherry). Reagents: siRNA pool against mouse genes, 100 nM. Duration: 2 days siRNA transfection, then 40 min LPS before fixation. Challenge: LPS (Salmonella minnesota R595) at 10 ng/ml. Measurement: 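Imaged p65 nuclear translocation ratio, normalised to the plate median, converted to robust z-scores and averaged across two replicates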. Direction: p65 translocation robust z-score: higher = more nuclear NF-kappaB p65 after LPS than the plate median; nuclear/cytoplasmic p65 ratio: higher = more nuclear NF-kappaB p65. Rule for the call: 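Called active when z exceeds 3.3 or falls under -1.56 (median of Tlr4 controls), giving activity score of at least 50; no calls for control wells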. Meaning of the calls: active = hit (p65 shift raised or lowered); inactive = no clear change.
Shown is a random part of about 17,000 reagents tested. Over the whole deposit, 762 (4.5%) were called active. 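Active calls include both raised and lowered p65 entry, mostly lowered; wells with fewer than 50 cells lack a z-score.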 Raw values are not corrected between plates. Reagent sequences are not shown.

target,p65 translocation robust z-score,"nuclear/cytoplasmic p65 ratio, rep 1","nuclear/cytoplasmic p65 ratio, rep 2",low cell count flag,outcome
2210409E12Rik (RIKEN cDNA 2210409E12 gene),0.26,1.39,1.4,enough cells to score,inactive
Drd5 (dopamine receptor D5),,1.47,1.8,fewer than 50 cells per well; well left out of scoring,inactive
Mest (mesoderm specific transcript),1.74,1.66,1.57,enough cells to score,inactive
Esyt1 (extended synaptotagmin-like protein 1),-0.19,1.45,1.58,enough cells to score,inactive
Slc9b2,-0.92,1.53,1.56,enough cells to score,inactive
Itfg2 (integrin alpha FG-GAP repeat containing 2),-0.14,1.35,1.48,enough cells to score,inactive
Dmwd (dystrophia myotonica-containing WD repeat motif),-1.5,1.34,1.13,enough cells to score,inactive
Slc25a30,1.66,1.51,1.45,enough cells to score,inactive
3110040N11Rik (RIKEN cDNA 3110040N11 gene),,1.31,1.34,fewer than 50 cells per well; well left out of scoring,inactive
Jade1 (jade family PHD finger 1),-0.03,1.43,1.24,enough cells to score,inactive
Cct8 (chaperonin containing TCP1 subunit 8),-0.28,1.36,1.34,enough cells to score,inactive
Nat2 (N-acetyltransferase 2 (arylamine N-acetyltransferase)),-0.77,1.35,1.24,enough cells to score,inactive
Ccl24 (C-C motif chemokine ligand 24),0.61,1.41,1.45,enough cells to score,inactive
Neurod4 (neurogenic differentiation 4),0.25,1.89,1.57,enough cells to score,inactive
E2f6 (E2F transcription factor 6),-2.16,0.997,1.25,enough cells to score,active
Eef1d (eukaryotic translation elongation factor 1 delta),-0.15,1.44,1.28,enough cells to score,inactive
Gpr63 (G protein-coupled receptor 63),-0.76,1.43,1.48,enough cells to score,inactive
Or14a260 (olfactory receptor family 14 subfamily A member 260),0.28,1.65,1.33,enough cells to score,inactive
Vmn1r37 (vomeronasal 1 receptor 37),-0.09,1.35,1.24,enough cells to score,inactive
Fbxw8 (F-box and WD-40 domain protein 8),0.54,1.59,1.8,enough cells to score,inactive
"Scn1a (sodium channel, voltage-gated, type I, alpha)",0.97,1.55,1.33,enough cells to score,inactive
Cdc34 (cell division cycle 34),-0.13,1.43,1.38,enough cells to score,inactive
Hoxb13 (homeobox B13),0.66,1.43,1.54,enough cells to score,inactive
Zfp932 (zinc finger protein 932),,1.19,0.827,fewer than 50 cells per well; well left out of scoring,inactive
